# Results: doi:10.1101/2024.10.03.616587
# B1: Lgi4, FLAG-tagged (protein, UniProt Q8N135-1 20-537)
# chain: WRPPKGKCPLRCSCSKDSALCEGSPDLPVSFSPTLLSLSLVRTGVTQLKAGSFLRIPSLHLLLFTSNSFSVIEDDAFAGLSHLQYLFIEDNEIGSISKNALRGLRSLTHLSLANNHLETLPRFLFRGLDTLTHVDLRGNPFQCDCRVLWLLQWMPTVNASVGTGACAGPASLSHMQLHHLDPKTFKCRAIELSWFQTVGESALSVEPFSYQGEPHIVLAQPFAGRCLILSWDYSLQRFRPEEELPAASVVSCKPLVLGPSLFVLAARLWGGSQLWARPSPGLRLAPTQTLAPRRLLRPNDAELLWLEGQPCFVVADASKAGSTTLLCRDGPGFYPHQSLHAWHRDTDAEALELDGRPHLLLASASQRPVLFHWTGGRFERRTDIPEAEDVYATRHFQAGGDVFLCLTRYIGDSMVMRWDGSMFRLLQQLPSRGAHVFQPLLIARDQLAILGSDFAFSQVLRLEPDKGLLEPLQELGPPALVAPRAFAHITMAGRRFLFAACFKGPTQIYQHHEIDLSA
# Molecular target: KVβ1.2 subunit (UniProt Q14722)
# Assay: co-IP
binder,measurement,value
B1,binding,binds

# These are yes or no findings as the source states them, for the method shown. Binding seen in cells or lysates may run through a third protein. Binding calls can cover weak binding; strength is not graded here. Tags and fused reporters may be left off the sequences shown.
